The chains behind the UniProt entries cited, without tags or fusion partners. Where a name states a change or a piece, a line headed by the entry shows the natural chain unless it says otherwise.
UniProt A0R561: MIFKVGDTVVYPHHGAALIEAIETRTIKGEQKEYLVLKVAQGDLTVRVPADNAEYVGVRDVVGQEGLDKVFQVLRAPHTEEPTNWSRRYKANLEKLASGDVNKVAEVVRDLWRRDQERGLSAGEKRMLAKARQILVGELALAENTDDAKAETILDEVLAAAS
UniProt A0R4G8: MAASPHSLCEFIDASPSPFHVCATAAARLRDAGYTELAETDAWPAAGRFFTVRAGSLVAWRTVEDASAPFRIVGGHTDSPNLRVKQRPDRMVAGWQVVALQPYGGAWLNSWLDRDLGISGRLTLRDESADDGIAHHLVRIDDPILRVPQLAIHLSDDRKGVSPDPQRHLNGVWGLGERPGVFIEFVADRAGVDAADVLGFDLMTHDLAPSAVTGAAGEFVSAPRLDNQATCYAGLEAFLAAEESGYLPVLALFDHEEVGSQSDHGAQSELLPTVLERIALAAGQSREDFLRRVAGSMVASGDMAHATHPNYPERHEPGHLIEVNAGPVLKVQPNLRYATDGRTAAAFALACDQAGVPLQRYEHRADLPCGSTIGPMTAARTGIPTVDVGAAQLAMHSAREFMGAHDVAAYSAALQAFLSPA

According to article PMC12709188:

Biological target: CarD–gFLAG (FLAG-tag sequence inserted into the M. smegmatis genome at the carD locus) (M. smegmatis) (UniProt A0R561)
Assay: co-IP; FLAG pull-down: M. smegmatis lysates (2–4 mg protein; exponential and stationary phase; for RNAP-FLAG also after crsL knock-down) with M2 anti-FLAG resin 16–18 h at 4°C in 20 mM Tris–HCl pH 7.9, 150 mM KCl, 1 mM MgCl2; SDS–PAGE, silver stain, bands identified by MALDI-FTICR MS and/or western blot

“ApeB (MSMEG_5828), putative protease homologous of M. tuberculosis PepC (from UniProt A0R4G8)” was tested, and the binding was “binds”.

No constants are given. Whether binding was seen depends on the method and setting. In cells and extracts the contact can be indirect. Binding can be weak; no strength is given.
